Data published in patent US20240358762A1 (UNIVERSITY OF PITTSBURGH OF THE COMMONWEALTH SYSTEM OF …, published 2024).
Results are given in words; binding and its absence hold for the method and conditions named. Some entries that bind do so weakly or less than the wild type.

Target: T1, human PRTG fibronectin type-III 1 domain (human) (UniProt Q2VWP7)
T1 sequence (looked up): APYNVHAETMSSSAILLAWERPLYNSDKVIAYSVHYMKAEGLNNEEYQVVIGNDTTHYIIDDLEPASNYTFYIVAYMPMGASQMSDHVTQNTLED
Assay: ELISA

B1: VH domain Clone #1 (other)
VH: EVQLVESGGGLVQPGGSLRLSCKASGFTVSSNYMHWVRQAPGKGLEWIGGINHSGRTNYKSSLKSRVTISRDNSKNTLYLQMNSLRAEDTAVYYCARLPPSRDGYNYADYWGQGTLVTVSS
notes: also called #1 (VH domain)
binding: binds
